Some results were stated once for a whole list of compounds, not compound by compound.
Tests used:
Type in all cases: in vivo
Puccinia recondita = assay: G4 Curative control of brown rust on wheat (Puccrt K4); conditions: wheat seedlings inoculated, sprayed curatively with 250 ppm, assessed after 8 days; untreated plants 90% infected
Botrytis cinerea = assay: G3 Long lasting control of Botrytis cinerea on leaves of green pepper (Botrci P7); conditions: green pepper sprayed with 63 ppm, inoculated after 7 days, assessed 5 days later; untreated plants 90% infected
Septoria tritici = assay: G2 Preventative control of leaf blotch on wheat (Septtr P1); conditions: wheat seedlings sprayed with 300 ppm, inoculated the following day, assessed after 4 weeks; untreated plants 90% infected
Alternaria solani = assay: G1 Preventative fungicidal control of early blight on tomatoes (Alteso P1); conditions: tomato plants sprayed with 300 ppm, inoculated next day, assessed after 5 days; untreated plants 90% infected

With `CC#CC(O)(Cn1cncn1)c1ccc(Oc2ccc(Cl)cc2)cc1` (stereo not shown) [I-3, 1-(1,2,4-triazole)-2-[4-(4-chlorophenoxyl)phenyl]pent-3-yn-2-ol] the “infection (fungal attack on the leaves visually assessed as % diseased leaf area)” value (Puccinia recondita) was “less than or equal to 1%”, the “infection (fungal attack on the leaves visually assessed as % diseased leaf area)” value (Botrytis cinerea) was “less than or equal to 20%” and the “infection (fungal attack on the leaves visually assessed as % diseased leaf area)” value (Septoria tritici) was “less than or equal to 7%”. For the same compound, the “infection (fungal attack on the leaves visually assessed as % diseased leaf area)” value (Alternaria solani) was “less than or equal to 1%”.

Source: US20150307459A1, “Substituted 2-[phenoxy-phenyl]-1-[1,2,4]triazol-1-yl-ethanol Compounds and Their Use as Fungicides” (BASF SE, priority 2012, published 2015)
